Data from PubChem BioAssay AID248 (DTP/NCI, 2004).
The list shows only some results of the screen, not a fair sample: it is rich in T/C values a quarter to a half above the control, in often repeated tests (any T/C) and in doses without a T/C. Other doses and runs of a compound stand elsewhere. T/C is the treated group as % of the vehicle group. Some doses have a count of surviving animals in place of a T/C: the source files T/C as zero there, which appears to mark a toxic dose or a test without result, not a measured value. Some doses without a T/C left all or most animals alive at the check, yet need not have been tolerated: survival well below the control is almost never listed, so the zero probably covers shortened survival too. Counts of survivors are from the toxicity check (mostly the fifth day) where no day follows; animals may have died later. Schedules are NCI's codes, taken here to give the interval after Q, in days (D) or hours (H), and the number of doses after X. Some schedule codes hold Z or #, which are not explained here. Some structures stand for samples that the source files as different forms (salt, stereo form or complex); doses refer to the form tested. Additions like (4×) give the number of equal values in this list. Some entries were tested several times; the results are listed from low to high. For survival time, the PubChem record calls one and a half times the control and up active, and a quarter to a half above the control has no call in these data; cut-offs in other NCI protocols can differ.

System: L1210 leukemia ip in BDF1 mice, survival T/C
Experiment: NCI In Vivo Anticancer Drug Screen. Data for tumor model L1210 Leukemia (intraperitoneal) in B6D2F1 (BDF1) mice
Settings: T/C endpoint: mean survival time, higher T/C = longer survival
[1] = dose: 100.0 mg/kg/injection, schedule: Q01DX009 (ip), vehicle: saline with Tween-80
[2] = dose: 200.0 mg/kg/injection, schedule: Q01DX009 (ip), vehicle: saline with Tween-80
[3] = dose: 400.0 mg/kg/injection, schedule: Q01DX009 (ip), vehicle: saline with Tween-80
[4] = dose: 400.0 mg/kg/injection, schedule: Q01DX001 (ip), vehicle: saline
[5] = dose: 200.0 mg/kg/injection, schedule: Q04DX003 (ip), vehicle: saline
[6] = dose: 400.0 mg/kg/injection, schedule: Q04DX003 (ip), vehicle: saline
[7] = dose: 100.0 mg/kg/injection, schedule: Q04DX002 (ip), vehicle: Klucel (hydroxypropylcellulose) (HPC)
[8] = dose: 200.0 mg/kg/injection, schedule: Q04DX002 (ip), vehicle: Klucel (hydroxypropylcellulose) (HPC)
[9] = dose: 100.0 mg/kg/injection, schedule: Q04DX003 (ip), vehicle: saline
[10] = dose: 300.0 mg/kg/injection, schedule: Q01DX001 (ip), vehicle: carboxymethylcellulose (CMC)
[11] = dose: 100.0 mg/kg/injection, schedule: Q01DX001 (ip), vehicle: saline
[12] = dose: 200.0 mg/kg/injection, schedule: Q01DX001 (ip), vehicle: saline
[13] = dose: 200.0 mg/kg/injection, schedule: Q01DX009 (ip), vehicle: saline
[14] = dose: 400.0 mg/kg/injection, schedule: Q01DX009 (ip), vehicle: saline
[15] = dose: 200.0 mg/kg/injection, schedule: Q04DX003 (ip), vehicle: Klucel (hydroxypropylcellulose) (HPC)
[16] = dose: 400.0 mg/kg/injection, schedule: Q04DX003 (ip), vehicle: Klucel (hydroxypropylcellulose) (HPC)

For `C[N+]1(C)C2CC(O)CC1C1OC12` (stereo not given), the survivor count (dose: 10.0 mg/kg/injection, schedule: Q01DX001 (ip), vehicle: saline) was 0 of 6, the survivor count (dose: 20.0 mg/kg/injection, schedule: Q01DX001 (ip), vehicle: saline) was 0 of 6 and the survivor count (dose: 40.0 mg/kg/injection, schedule: Q01DX001 (ip), vehicle: saline) was 0 of 6. For the same compound, the survivor count (dose: 75.0 mg/kg/injection, schedule: Q01DX001 (ip), vehicle: saline) was 0 of 6, the survivor count (dose: 150.0 mg/kg/injection, schedule: Q01DX001 (ip), vehicle: saline) was 0 of 6 and the survivor count (dose: 300.0 mg/kg/injection, schedule: Q01DX001 (ip), vehicle: saline) was 0 of 6.
For `Nc1nc(N)c2cc(NCc3ccc(F)cc3)ccc2n1`, the survivor count (dose: 12.5 mg/kg/injection, schedule: Q04DX003 (ip), vehicle: saline with Tween-80) was 6 of 6, the survivor count (dose: 25.0 mg/kg/injection, schedule: Q04DX003 (ip), vehicle: saline with Tween-80) was 6 of 6 and the survivor count (dose: 100.0 mg/kg/injection, schedule: Q04DX003 (ip), vehicle: saline with Tween-80) was 3 of 6. The survivor count (dose: 200.0 mg/kg/injection, schedule: Q04DX003 (ip), vehicle: saline with Tween-80) was 0 of 6 and the survivor count (dose: 400.0 mg/kg/injection, schedule: Q04DX003 (ip), vehicle: saline with Tween-80) was 0 of 6.
For `CNC(=O)Oc1cccc(C)c1`, the survivor count [1] was 3 of 6, the survivor count [2] was 2 of 6 and the survivor count [3] was 0 of 6.
`Nc1nc(=O)[nH]c(N)c1N` was tested, and the survivor count [4] was 3 of 6.
For `N#CCCNc1ccc(NC(=O)C(F)(F)F)cc1`, the survivor count [5] was 1 of 6 and the survivor count [6] was 0 of 6.
In the case of `CCCCCN(C)N=Nc1ccccc1C(N)=O`, the survivor count (dose: 400.0 mg/kg/injection, schedule: Q01DX009 (ip), vehicle: Klucel (hydroxypropylcellulose) (HPC)) is reported as 0 of 6.
In the case of `C#CC(OC(=O)N(C)C)(c1ccccc1)c1ccc(F)cc1` (stereo not given), the survivor count (dose: 80.0 mg/kg/injection, schedule: Q01DX001 (ip), vehicle: saline) is reported as 3 of 6.
For `C=CCOc1c(Br)cc(Br)cc1Br`, the survivor count (dose: 50.0 mg/kg/injection, schedule: Q04DX002 (ip), vehicle: Klucel (hydroxypropylcellulose) (HPC)) was 3 of 3, the survivor count [7] was 3 of 3 and the survivor count [8] was 3 of 3.
In the case of `CCN(CC)CCC1CCNCC1`, the survivor count (dose: 50.0 mg/kg/injection, schedule: Q04DX003 (ip), vehicle: saline) is reported as 0 of 6, the survivor count [9] is reported as 1 of 6 and the survivor count [5] is reported as 0 of 6. For the same compound, the survivor count [6] was 0 of 6.
For `CC(C)=CCC/C(C)=C/CO`, the survivor count [3] was 0 of 6.
In the case of `OCC1OC(n2cnc3c(=S)nc[nH]c32)CC1O` (stereo not given), the T/C (dose: 63.0 mg/kg/injection, schedule: Q01DX015 (ip), vehicle: saline) is reported as 125 % of control, the T/C (dose: 108.0 mg/kg/injection, schedule: Q01DX015 (ip), vehicle: saline) is reported as 125 % of control and the T/C [4] is reported as 129 % of control. For the same compound, the T/C (dose: 600.0 mg/kg/injection, schedule: Q01DX001 (ip), vehicle: saline) was 131 % of control.
With `CCCCCCCCCCCCNC(=O)c1cc[n+](C)cc1` the survivor count [9] was 0 of 6 and 2 of 6, the survivor count [5] was 0 of 6 and 1 of 6 and the survivor count [6] was 0 of 6 (2×).
With `O=C1C2(Cl)C3(Cl)C4(Cl)C(Cl)(Cl)C5(Cl)[C@]3(Cl)C1(Cl)[C@]5(Cl)C24Cl` (stereo not given in full) the survivor count [10] was 0 of 6.
`CC(=O)OC(C(C)=O)C(C)=O.CC(=O)OC(C(C)=O)C(C)=O.[Cu]` was tested, and the survivor count [11] was 2 of 6, the survivor count [12] was 6 of 6 and the survivor count [4] was 6 of 6.
`CC(C)[As](=O)(O)O` was tested, and the survivor count [13] was 3 of 6 and the survivor count [14] was 0 of 6.
In the case of `C(=N\c1ncn[nH]1)/Nc1ncn[nH]1`, the survivor count [6] is reported as 4 of 6.
In the case of `OCCC[P+](c1ccccc1)(c1ccccc1)c1ccccc1`, the survivor count (dose: 100.0 mg/kg/injection, schedule: Q01DX009 (ip), vehicle: Klucel (hydroxypropylcellulose) (HPC)) is reported as 6 of 6, the survivor count [15] is reported as 4 of 6 and the survivor count [16] is reported as 0 of 6.
In the case of `CN(C)CCN(Cc1ccccc1)c1ccccn1`, the survivor count [10] is reported as 0 of 6.
For `CC(=C/C(C)(C)C)/C(C)=C/C(C)(C)C`, the survivor count [13] was 5 of 6 and the survivor count [14] was 4 of 6.
With `[Cl][Hg][CH2]CN1CCCCC1` the survivor count (dose: 100.0 mg/kg/injection, schedule: Q04DX002 (ip), vehicle: saline with Tween-80) was 0 of 3, the survivor count (dose: 200.0 mg/kg/injection, schedule: Q04DX002 (ip), vehicle: saline with Tween-80) was 0 of 3 and the survivor count (dose: 400.0 mg/kg/injection, schedule: Q04DX002 (ip), vehicle: saline with Tween-80) was 0 of 3.
`COc1cc(C(=O)O)c(Cc2ccccc2)c(OC)c1O` was tested, and the survivor count [11] was 4 of 4, the survivor count [12] was 4 of 4 and the survivor count [4] was 4 of 4.
`CN(N=O)C(=O)NCCOC(=O)N(C)N=O` was tested, and the survivor count (dose: 25.0 mg/kg/injection, schedule: Q01DX Z (ip), vehicle: carboxymethylcellulose (CMC)) was 6 of 6, the survivor count (dose: 50.0 mg/kg/injection, schedule: Q01DX Z (ip), vehicle: carboxymethylcellulose (CMC)) was 2 of 6 and the survivor count (dose: 100.0 mg/kg/injection, schedule: Q01DX Z (ip), vehicle: carboxymethylcellulose (CMC)) was 0 of 6.
`Cn1cnc(=S)c2ccccc21` was tested, and the survivor count (dose: 100.0 mg/kg/injection, schedule: Q04DX003 (ip), vehicle: Klucel (hydroxypropylcellulose) (HPC)) was 3 of 3, the survivor count [15] was 1 of 3 and the survivor count [16] was 1 of 3.
`N#Cc1ccccc1.N#Cc1ccccc1.[Cl][Pd][Cl]` was tested, and the survivor count [16] was 6 of 6.
With `O=[N+]([O-])c1ccc(F)c(Cl)c1F` the survivor count [7] was 0 of 3, the survivor count [8] was 0 of 3 and the survivor count (dose: 400.0 mg/kg/injection, schedule: Q04DX002 (ip), vehicle: Klucel (hydroxypropylcellulose) (HPC)) was 0 of 3.
With `O=CC(O)C(O)C(O)C(O)COP(=O)(O)O` (stereo not given) the survivor count [9] was 5 of 6, the survivor count [5] was 3 of 6 and the survivor count [6] was 1 of 6.
With `CC(=O)OC1CCC2(C)C(CCC3C4CC=C(C(C)=O)C4(C)OC(=O)CC32)C1` (stereo not given) the survivor count (dose: 75.0 mg/kg/injection, schedule: Q01DX009 (ip), vehicle: carboxymethylcellulose (CMC)) was 6 of 6, the survivor count (dose: 150.0 mg/kg/injection, schedule: Q01DX009 (ip), vehicle: carboxymethylcellulose (CMC)) was 2 of 6 and the survivor count (dose: 300.0 mg/kg/injection, schedule: Q01DX009 (ip), vehicle: carboxymethylcellulose (CMC)) was 1 of 6.
For `C[C@]12CC[C@@H]3c4ccc(OCC(=O)O)cc4CC[C@H]3[C@@H]1CCC2=O`, the survivor count (dose: 300.0 mg/kg/injection, schedule: Q01DX009 (ip), vehicle: Klucel (hydroxypropylcellulose) (HPC)) was 0 of 6.
With `CC/C=N/Nc1ccc([N+](=O)[O-])cc1[N+](=O)[O-]` the survivor count [1] was 5 of 6, the survivor count [2] was 6 of 6 and the survivor count [3] was 6 of 6.
With `COc1ccccc1N=Nc1ccc(O)c(C(=O)O)c1` the survivor count [16] was 1 of 6.
With `NC(=S)c1cccc(OCCc2ccccc2)c1` the survivor count (dose: 400.0 mg/kg/injection, schedule: Q01DX001 (ip), vehicle: saline with Tween-80) was 0 of 6.
`CN(CO)c1nc(N(C)CO)nc(N(C)CO)n1` was tested, and the T/C (dose: 50.0 mg/kg/injection, schedule: Q01DX009 (ip), vehicle: saline) was 140 % of control.
For `N/C(=C\C(=O)c1ccccc1)C(=O)c1ccccc1`, the survivor count [16] was 2 of 6.
`COC(=O)Cc1oc(=O)n(-c2ccccc2)c(=O)c1C(=O)OC` was tested, and the survivor count (dose: 100.0 mg/kg/injection, schedule: Q04DX002 (ip), vehicle: gum acacia) was 2 of 3, the survivor count (dose: 200.0 mg/kg/injection, schedule: Q04DX002 (ip), vehicle: gum acacia) was 0 of 3 and the survivor count (dose: 400.0 mg/kg/injection, schedule: Q04DX002 (ip), vehicle: gum acacia) was 0 of 3.
